According to the supplement of paper PMC10849652:
This is one part of the list.

Chains of the proteins cited; added tags and fusions are not shown. Lines headed by an entry give the natural chain unless they say otherwise; changes in a name come on top.
UniProt P02730: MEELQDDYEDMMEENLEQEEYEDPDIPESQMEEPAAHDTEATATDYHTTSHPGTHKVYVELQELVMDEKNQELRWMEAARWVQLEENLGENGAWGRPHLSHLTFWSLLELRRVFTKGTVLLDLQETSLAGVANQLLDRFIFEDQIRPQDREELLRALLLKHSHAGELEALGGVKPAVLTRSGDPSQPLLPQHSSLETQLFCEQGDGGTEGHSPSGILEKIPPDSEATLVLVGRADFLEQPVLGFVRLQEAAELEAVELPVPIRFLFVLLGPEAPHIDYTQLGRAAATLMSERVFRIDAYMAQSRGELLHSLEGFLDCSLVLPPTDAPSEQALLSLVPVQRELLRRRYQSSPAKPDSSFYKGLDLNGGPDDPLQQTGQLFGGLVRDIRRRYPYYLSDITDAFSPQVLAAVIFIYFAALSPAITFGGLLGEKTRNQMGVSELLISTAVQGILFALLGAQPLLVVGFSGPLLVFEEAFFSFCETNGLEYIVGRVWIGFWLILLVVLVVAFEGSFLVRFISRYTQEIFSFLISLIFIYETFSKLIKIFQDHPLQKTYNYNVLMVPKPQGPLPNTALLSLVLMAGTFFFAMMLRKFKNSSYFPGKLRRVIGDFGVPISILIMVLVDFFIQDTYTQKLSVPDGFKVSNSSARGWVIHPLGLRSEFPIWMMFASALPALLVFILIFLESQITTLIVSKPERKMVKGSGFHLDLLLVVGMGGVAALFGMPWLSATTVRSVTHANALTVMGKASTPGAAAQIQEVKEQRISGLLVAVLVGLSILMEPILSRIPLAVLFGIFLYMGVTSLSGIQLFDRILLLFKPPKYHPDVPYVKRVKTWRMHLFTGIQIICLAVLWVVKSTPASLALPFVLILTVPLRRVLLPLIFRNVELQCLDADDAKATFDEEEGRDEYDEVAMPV
UniProt P53794: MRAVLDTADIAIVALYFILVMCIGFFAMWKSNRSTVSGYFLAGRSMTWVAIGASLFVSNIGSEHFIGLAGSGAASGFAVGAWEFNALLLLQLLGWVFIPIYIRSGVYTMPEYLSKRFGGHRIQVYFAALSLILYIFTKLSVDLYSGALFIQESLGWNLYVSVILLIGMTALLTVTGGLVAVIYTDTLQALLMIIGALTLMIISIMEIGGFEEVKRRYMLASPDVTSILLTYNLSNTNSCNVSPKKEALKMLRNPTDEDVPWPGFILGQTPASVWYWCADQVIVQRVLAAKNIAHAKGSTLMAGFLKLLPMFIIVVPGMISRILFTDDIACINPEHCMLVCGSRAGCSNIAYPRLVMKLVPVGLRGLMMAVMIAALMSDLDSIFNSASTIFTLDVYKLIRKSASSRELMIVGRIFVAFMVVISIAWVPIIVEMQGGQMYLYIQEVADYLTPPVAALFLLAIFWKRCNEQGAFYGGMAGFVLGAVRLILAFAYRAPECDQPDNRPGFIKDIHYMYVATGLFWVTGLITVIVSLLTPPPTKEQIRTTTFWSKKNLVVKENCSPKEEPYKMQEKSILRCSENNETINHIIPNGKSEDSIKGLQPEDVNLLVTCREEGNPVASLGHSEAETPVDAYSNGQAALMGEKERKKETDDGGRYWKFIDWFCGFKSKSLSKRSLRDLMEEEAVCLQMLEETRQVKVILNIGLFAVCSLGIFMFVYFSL
UniProt Q96H78: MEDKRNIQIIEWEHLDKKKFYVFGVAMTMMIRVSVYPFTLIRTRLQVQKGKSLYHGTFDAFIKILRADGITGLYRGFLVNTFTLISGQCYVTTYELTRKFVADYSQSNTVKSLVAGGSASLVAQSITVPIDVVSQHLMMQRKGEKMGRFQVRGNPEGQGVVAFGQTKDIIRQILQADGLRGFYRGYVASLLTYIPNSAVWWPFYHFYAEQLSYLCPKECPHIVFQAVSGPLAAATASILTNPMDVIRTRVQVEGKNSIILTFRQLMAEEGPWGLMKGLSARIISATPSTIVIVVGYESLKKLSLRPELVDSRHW
UniProt Q969S0: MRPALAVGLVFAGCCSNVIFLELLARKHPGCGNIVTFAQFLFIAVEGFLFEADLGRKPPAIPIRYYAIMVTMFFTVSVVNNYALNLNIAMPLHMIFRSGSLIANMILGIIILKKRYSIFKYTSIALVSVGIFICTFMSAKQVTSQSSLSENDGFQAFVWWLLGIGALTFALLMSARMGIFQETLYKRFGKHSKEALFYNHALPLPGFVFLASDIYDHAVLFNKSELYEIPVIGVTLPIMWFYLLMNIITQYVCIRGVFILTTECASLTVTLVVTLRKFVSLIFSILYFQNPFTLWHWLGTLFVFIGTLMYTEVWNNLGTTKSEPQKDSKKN
UniProt Q9H1U9: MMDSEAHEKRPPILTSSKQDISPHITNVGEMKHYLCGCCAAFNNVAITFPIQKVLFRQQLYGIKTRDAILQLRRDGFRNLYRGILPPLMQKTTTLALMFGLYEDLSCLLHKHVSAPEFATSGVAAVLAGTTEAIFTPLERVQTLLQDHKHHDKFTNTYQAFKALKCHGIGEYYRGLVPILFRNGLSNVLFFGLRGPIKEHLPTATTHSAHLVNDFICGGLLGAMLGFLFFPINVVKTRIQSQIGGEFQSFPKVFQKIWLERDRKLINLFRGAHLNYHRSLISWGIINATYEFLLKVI
UniProt Q6P1K1: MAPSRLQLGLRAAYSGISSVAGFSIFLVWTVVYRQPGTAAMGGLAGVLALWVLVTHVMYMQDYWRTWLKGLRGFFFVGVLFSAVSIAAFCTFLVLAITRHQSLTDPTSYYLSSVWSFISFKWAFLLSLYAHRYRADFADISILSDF
UniProt Q9HAB3: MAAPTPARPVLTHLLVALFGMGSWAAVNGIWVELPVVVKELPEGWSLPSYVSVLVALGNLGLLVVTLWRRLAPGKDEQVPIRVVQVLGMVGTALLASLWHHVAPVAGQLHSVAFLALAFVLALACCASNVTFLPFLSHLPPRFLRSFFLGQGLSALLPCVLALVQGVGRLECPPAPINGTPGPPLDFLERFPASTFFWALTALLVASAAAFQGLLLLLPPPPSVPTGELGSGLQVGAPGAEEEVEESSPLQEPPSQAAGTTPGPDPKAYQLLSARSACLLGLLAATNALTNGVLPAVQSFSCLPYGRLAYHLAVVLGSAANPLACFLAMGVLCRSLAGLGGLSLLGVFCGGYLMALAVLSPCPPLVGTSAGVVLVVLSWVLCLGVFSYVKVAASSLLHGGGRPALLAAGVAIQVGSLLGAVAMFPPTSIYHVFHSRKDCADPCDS
UniProt P30825: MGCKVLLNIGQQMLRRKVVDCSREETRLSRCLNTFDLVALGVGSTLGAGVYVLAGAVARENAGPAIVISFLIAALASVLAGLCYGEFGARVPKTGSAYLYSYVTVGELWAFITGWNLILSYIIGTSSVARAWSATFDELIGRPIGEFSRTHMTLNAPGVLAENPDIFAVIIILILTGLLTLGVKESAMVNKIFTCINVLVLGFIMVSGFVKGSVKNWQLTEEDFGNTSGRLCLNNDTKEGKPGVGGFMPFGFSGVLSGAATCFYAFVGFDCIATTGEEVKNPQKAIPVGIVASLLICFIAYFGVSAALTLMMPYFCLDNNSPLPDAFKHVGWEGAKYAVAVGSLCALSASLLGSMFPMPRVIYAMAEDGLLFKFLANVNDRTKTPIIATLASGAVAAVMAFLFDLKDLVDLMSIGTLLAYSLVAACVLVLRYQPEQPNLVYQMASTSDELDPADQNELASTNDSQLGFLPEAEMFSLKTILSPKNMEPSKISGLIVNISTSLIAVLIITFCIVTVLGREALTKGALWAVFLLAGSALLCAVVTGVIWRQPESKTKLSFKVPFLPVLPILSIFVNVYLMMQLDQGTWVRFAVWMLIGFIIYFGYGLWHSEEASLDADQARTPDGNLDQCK
UniProt Q5SVS4: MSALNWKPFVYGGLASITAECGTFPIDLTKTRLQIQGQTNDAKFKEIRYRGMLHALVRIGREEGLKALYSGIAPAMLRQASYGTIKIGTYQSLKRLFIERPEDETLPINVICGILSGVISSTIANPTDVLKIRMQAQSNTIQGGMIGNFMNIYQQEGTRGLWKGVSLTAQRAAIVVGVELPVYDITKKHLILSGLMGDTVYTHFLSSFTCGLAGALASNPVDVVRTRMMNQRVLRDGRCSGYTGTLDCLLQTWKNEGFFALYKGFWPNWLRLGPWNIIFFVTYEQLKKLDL
UniProt Q9Y2E8: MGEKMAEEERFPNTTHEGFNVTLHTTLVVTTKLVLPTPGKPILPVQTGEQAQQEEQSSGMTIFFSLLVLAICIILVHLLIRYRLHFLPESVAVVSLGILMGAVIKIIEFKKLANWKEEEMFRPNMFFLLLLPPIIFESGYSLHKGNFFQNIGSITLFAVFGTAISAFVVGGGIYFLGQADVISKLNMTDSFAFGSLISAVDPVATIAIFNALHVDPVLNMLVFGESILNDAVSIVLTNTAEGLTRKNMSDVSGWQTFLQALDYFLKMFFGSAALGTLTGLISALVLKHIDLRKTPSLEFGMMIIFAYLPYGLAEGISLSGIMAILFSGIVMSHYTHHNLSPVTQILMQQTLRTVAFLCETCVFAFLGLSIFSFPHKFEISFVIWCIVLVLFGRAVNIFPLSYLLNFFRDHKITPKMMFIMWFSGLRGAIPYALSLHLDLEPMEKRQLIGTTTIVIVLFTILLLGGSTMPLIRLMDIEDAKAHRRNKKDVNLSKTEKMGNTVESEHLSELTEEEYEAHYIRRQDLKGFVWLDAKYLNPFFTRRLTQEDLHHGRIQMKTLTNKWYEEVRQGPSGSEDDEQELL
UniProt P14672: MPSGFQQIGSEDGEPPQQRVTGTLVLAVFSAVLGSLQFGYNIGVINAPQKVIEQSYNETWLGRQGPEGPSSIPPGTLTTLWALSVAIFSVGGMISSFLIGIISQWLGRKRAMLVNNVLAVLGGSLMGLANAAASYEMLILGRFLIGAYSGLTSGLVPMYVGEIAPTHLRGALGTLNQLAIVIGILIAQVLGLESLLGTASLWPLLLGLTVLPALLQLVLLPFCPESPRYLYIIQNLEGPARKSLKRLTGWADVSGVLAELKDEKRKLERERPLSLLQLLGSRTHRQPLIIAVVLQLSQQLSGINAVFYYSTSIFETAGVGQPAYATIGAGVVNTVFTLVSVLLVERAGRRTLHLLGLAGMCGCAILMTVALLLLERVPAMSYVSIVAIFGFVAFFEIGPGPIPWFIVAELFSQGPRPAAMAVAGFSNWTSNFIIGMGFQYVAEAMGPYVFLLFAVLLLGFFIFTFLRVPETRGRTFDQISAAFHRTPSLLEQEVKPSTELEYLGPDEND
UniProt Q6NXT4: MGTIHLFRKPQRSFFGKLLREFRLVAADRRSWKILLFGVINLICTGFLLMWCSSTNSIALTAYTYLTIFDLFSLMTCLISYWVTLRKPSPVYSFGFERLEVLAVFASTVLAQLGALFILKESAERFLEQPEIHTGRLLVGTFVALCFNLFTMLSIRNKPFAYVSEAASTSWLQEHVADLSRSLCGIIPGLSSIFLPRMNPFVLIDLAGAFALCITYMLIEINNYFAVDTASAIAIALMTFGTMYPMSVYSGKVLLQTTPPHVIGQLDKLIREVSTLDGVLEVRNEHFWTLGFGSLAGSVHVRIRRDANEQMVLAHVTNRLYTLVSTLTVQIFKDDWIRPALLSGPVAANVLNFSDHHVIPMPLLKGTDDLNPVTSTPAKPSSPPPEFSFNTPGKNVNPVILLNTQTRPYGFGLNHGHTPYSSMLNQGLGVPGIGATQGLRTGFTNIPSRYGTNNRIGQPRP
UniProt Q96AG3: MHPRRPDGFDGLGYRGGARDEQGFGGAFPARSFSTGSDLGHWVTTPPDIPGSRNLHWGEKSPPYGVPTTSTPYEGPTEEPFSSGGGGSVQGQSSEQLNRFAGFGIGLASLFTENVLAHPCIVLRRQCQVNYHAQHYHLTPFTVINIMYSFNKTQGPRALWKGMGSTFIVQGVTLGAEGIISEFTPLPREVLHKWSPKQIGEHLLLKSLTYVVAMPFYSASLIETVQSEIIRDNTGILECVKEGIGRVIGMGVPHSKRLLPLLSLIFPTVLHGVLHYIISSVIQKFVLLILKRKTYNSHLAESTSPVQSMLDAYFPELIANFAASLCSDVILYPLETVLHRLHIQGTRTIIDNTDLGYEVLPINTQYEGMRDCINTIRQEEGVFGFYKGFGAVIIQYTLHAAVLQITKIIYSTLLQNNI
UniProt Q92504: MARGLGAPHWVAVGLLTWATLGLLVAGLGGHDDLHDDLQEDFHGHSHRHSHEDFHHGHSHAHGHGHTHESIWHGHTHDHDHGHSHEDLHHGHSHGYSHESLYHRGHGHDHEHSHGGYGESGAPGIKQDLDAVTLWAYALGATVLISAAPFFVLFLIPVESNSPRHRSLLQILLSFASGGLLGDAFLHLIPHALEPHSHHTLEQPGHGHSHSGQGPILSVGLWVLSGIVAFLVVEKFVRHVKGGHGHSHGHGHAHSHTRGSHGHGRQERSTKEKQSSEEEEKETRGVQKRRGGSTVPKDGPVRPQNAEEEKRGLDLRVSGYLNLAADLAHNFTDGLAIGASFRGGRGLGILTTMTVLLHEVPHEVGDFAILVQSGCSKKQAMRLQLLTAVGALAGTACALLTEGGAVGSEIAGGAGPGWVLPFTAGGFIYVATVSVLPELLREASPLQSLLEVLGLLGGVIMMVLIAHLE

These targets were tested with C[C@H](C1=CC=C(C=C1)C(=O)NC2=C3C=CNC3=NC=C2)N (assay: log2 fold change, soluble protein after heating vs DMSO (PISA); higher = thermal stabilisation; K562 lysate, 10 uM; active = over 0.2 and 3.5 SD of the protein, either way, in both replicates (recomputed)).
Summary of the method: (§1)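 Following dounce homogenisation of K562 pellets in PBS pH 7.4 with 1 mM MgCl2, crude extract at 1 mg/mL protein was incubated for 30 min with 10 μM compound. Aliquots were then heated for 3 min over 48°C-58°C and pooled, NP-40 was added to 0.5% at 4°C, and soluble protein was recovered as the supernatant at 21,000xg for 90 min. Channel-sum-equalised TMTpro 16plex LC-MS/MS quantified this protein. Each value, from duplicates, is a log-two fold change in thermal stability relative to solvent controls.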

| Target | log2 fold change |
| --- | --- |
| SLC4A1 (UniProt P02730) | inactive: -0.053 |
| SLC45A4 isoform 3 (UniProt Q5BKX6) | inactive: 0.042 |
| SLC39A14 (UniProt Q15043) | inactive: 0.038 |
| SLC7A11 (UniProt Q9UPY5) | inactive: -0.082 |
| SLC5A3 (UniProt P53794) | inactive: 0.141 |
| SLC22A23 (UniProt A1A5C7) | inactive: -0.21 |
| SLC25A33 (UniProt Q9BSK2) | inactive: -0.073 |
| SLC25A44 (UniProt Q96H78) | inactive: -0.069 |
| SLC25A26 (UniProt Q70HW3) | inactive: -0.187 |
| SLC35B4 (UniProt Q969S0) | inactive: -0.101 |
| SLC25A17 (UniProt O43808) | active: -0.303 |
| SLC35B3 (UniProt Q9H1N7) | inactive: -0.013 |
| SLC25A51 (UniProt Q9H1U9) | inactive: -0.007 |
| SLC35F2 (UniProt Q8IXU6) | inactive: -0.228 |
| SLC26A2 (UniProt P50443) | inactive: -0.022 |
| SLC48A1 (UniProt Q6P1K1) | inactive: -0.079 |
| SLC43A1 (UniProt O75387) | inactive: -0.043 |
| SLC29A2 (UniProt Q14542) | active: -0.558 |
| SLC22A5 isoform 3 (UniProt O76082) | inactive: -0.201 |

| Target | log2 fold change |
| --- | --- |
| SLC3A2 (UniProt F5H867) | inactive: -0.2 |
| SLC9A6 isoform 2 (UniProt Q92581) | inactive: 0.1 |
| SLC3A2 (UniProt F5GZS6) | inactive: -0.08 |
| SLC52A2 (UniProt Q9HAB3) | inactive: -0.082 |
| SLC7A1 (UniProt P30825) | inactive: 0.025 |
| SLC7A6 (UniProt Q92536) | inactive: -0.137 |
| SLC39A1 (UniProt Q9NY26) | inactive: -0.434 |
| SLC66A1 (UniProt Q6ZP29) | inactive: -0.087 |
| SLC5A6 (UniProt Q9Y289) | inactive: 0.087 |
| SLC25A30 (UniProt Q5SVS4) | inactive: -0.042 |
| SLC35E1 (UniProt Q96K37) | inactive: -0.071 |
| SLC25A32 (UniProt Q9H2D1) | inactive: -0.151 |
| SLC9A8 isoform 2 (UniProt Q9Y2E8) | inactive: 0.027 |
| SLC2A4 (UniProt P14672) | inactive: -0.007 |
| SLC30A6 isoform 2 (UniProt Q6NXT4) | inactive: -0.095 |
| SLC25A46 (UniProt Q96AG3) | inactive: -0.015 |
| SLC31A1 (UniProt O15431) | inactive: -0.044 |
| SLC39A7 (UniProt Q92504) | inactive: -0.062 |

What follows are targets tested with C[C@H](Nc1ncnc2nc[nH]c12)c1cc2cccc(Cl)c2c(=O)n1-c1ccccc1 [duvelisib] in the same assay as above.
Summary of the method: as §1

| Target | log2 fold change |
| --- | --- |
| SLC4A1 (UniProt P02730) | inactive: 0.045 |
| SLC39A14 (UniProt Q15043) | inactive: 0.003 |
| SLC7A11 (UniProt Q9UPY5) | inactive: -0.031 |
| SLC5A3 (UniProt P53794) | inactive: 0.022 |
| SLC22A23 (UniProt A1A5C7) | inactive: 0.075 |
| SLC25A33 (UniProt Q9BSK2) | inactive: 0.01 |
| SLC25A44 (UniProt Q96H78) | inactive: 0.233 |
| SLC25A26 (UniProt Q70HW3) | inactive: 0.033 |
| SLC25A17 (UniProt O43808) | inactive: 0.029 |
| SLC35B3 (UniProt Q9H1N7) | inactive: 0.052 |
| SLC25A51 (UniProt Q9H1U9) | inactive: 0.034 |
| SLC35F2 (UniProt Q8IXU6) | inactive: 0.072 |
| SLC26A2 (UniProt P50443) | inactive: -0.052 |
| SLC48A1 (UniProt Q6P1K1) | inactive: -0.147 |
| SLC43A1 (UniProt O75387) | inactive: 0.039 |
| SLC29A2 (UniProt Q14542) | inactive: 0.083 |

| Target | log2 fold change |
| --- | --- |
| SLC22A5 isoform 3 (UniProt O76082) | inactive: 0.034 |
| SLC9A6 isoform 2 (UniProt Q92581) | inactive: -0.009 |
| SLC3A2 (UniProt F5GZS6) | inactive: -0.067 |
| SLC52A2 (UniProt Q9HAB3) | inactive: 0.002 |
| SLC7A1 (UniProt P30825) | inactive: 0.019 |
| SLC7A6 (UniProt Q92536) | inactive: -0.011 |
| SLC39A1 (UniProt Q9NY26) | inactive: -0.013 |
| SLC5A6 (UniProt Q9Y289) | inactive: 0.027 |
| SLC25A30 (UniProt Q5SVS4) | inactive: 0.086 |
| SLC35E1 (UniProt Q96K37) | inactive: 0.021 |
| SLC25A32 (UniProt Q9H2D1) | inactive: -0.014 |
| SLC9A8 isoform 2 (UniProt Q9Y2E8) | inactive: 0.038 |
| SLC2A4 (UniProt P14672) | inactive: -0.034 |
| SLC25A46 (UniProt Q96AG3) | inactive: -0.002 |
| SLC31A1 (UniProt O15431) | inactive: -0.007 |
